No constants are given. Whether binding was seen depends on the method and setting. Some entries that bind do so weakly or less than the wild type.
Biological target: FLAG-tagged cynomolgous APRIL (cynomolgus monkey)
Test: SPR vs BAv8-10

Amino acid sequences for entries named in this document (tags omitted). A change or cut given only in a name is not applied to a line headed by its entry.
UniProt Q02223: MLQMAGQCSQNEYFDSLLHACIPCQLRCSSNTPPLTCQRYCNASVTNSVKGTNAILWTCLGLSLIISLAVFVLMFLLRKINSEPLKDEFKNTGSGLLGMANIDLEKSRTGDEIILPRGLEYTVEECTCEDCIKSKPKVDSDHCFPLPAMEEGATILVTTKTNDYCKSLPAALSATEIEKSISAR

| binding | Substance |
| --- | --- |
| binds | BAv14-Ig (from UniProt Q02223 5-54) (Fc fusion) |
| binds | BAv16-Ig (from UniProt Q02223 5-54) (Fc fusion) |
| binds | BAv18-Ig (from UniProt Q02223 5-54) (Fc fusion) |
| binds | BAv21-Ig (from UniProt Q02223 5-54) (Fc fusion) |
| binds | BAv22-Ig (from UniProt Q02223 5-54) (Fc fusion) |
| binds | BAv23-Ig (from UniProt Q02223 5-54) (Fc fusion) |
| binds | BAv24-Ig (from UniProt Q02223 5-54) (Fc fusion) |
| binds | BAv27-Ig (from UniProt Q02223 5-54) (Fc fusion) |
| binds | BAv29-Ig (from UniProt Q02223 5-54) (Fc fusion) |
| binds | BAv30-Ig (from UniProt Q02223 5-54) (Fc fusion) |
| binds | BAv33-Ig (from UniProt Q02223 5-54) (Fc fusion) |
| binds | BAv35-Ig (from UniProt Q02223 5-54) (Fc fusion) |
| binds | BAv36-Ig (from UniProt Q02223 5-54) (Fc fusion) |
| binds | BAv37-Ig (from UniProt Q02223 5-54) (Fc fusion) |
| binds | BAv38-Ig (from UniProt Q02223 5-54) (Fc fusion) |
| binds | BAv39-Ig (from UniProt Q02223 5-54) (Fc fusion) |
| binds | BAv40-Ig (from UniProt Q02223 5-54) (Fc fusion) |
| binds | BAv42-Ig (from UniProt Q02223 5-54) (Fc fusion) |
| binds | BAv46-Ig (from UniProt Q02223 5-54) (Fc fusion) |
| binds | BAv47-Ig (from UniProt Q02223 5-54) (Fc fusion) |
| binds | BAv52-Ig (from UniProt Q02223 5-54) (Fc fusion) |
| binds | BAv57-Ig (from UniProt Q02223 5-54) (Fc fusion) |
| binds | BAv61-Ig (from UniProt Q02223 5-54) (Fc fusion) |
| binds | BAv65-Ig (from UniProt Q02223 5-54) (Fc fusion) |
| binds | BAv73-Ig (from UniProt Q02223 5-54) (Fc fusion) |
| binds | BAv80-Ig (from UniProt Q02223 5-54) (Fc fusion) |
| binds | BAv86-Ig (from UniProt Q02223 5-54) (Fc fusion) |

Continued, substance first:

| Substance | binding |
| --- | --- |
| BAv13-Ig (from UniProt Q02223 5-54) (Fc fusion) | binds |
| BAv15-Ig (from UniProt Q02223 5-54) (Fc fusion) | binds |
| BAv17-Ig (from UniProt Q02223 5-54) (Fc fusion) | binds |
| BAv19-Ig (from UniProt Q02223 5-54) (Fc fusion) | binds |
| BAv20-Ig (from UniProt Q02223 5-54) (Fc fusion) | binds |
| BAv25-Ig (from UniProt Q02223 5-54) (Fc fusion) | binds |
| BAv28-Ig (from UniProt Q02223 5-54) (Fc fusion) | binds |
| BAv31-Ig (from UniProt Q02223 5-54) (Fc fusion) | binds |
| BAv32-Ig (from UniProt Q02223 5-54) (Fc fusion) | binds |
| BAv34-Ig (from UniProt Q02223 5-54) (Fc fusion) | binds |
| BAv41-Ig (from UniProt Q02223 5-54) (Fc fusion) | binds |
| BAv43-Ig (from UniProt Q02223 5-54) (Fc fusion) | binds |
| BAv44-Ig (from UniProt Q02223 5-54) (Fc fusion) | binds |
| BAv48-Ig (from UniProt Q02223 5-54) (Fc fusion) | binds |
| BAv50-Ig (from UniProt Q02223 5-54) (Fc fusion) | binds |
| BAv56-Ig (from UniProt Q02223 5-54) (Fc fusion) | binds |
| BAv59-Ig (from UniProt Q02223 5-54) (Fc fusion) | binds |
| BAv62-Ig (from UniProt Q02223 5-54) (Fc fusion) | binds |
| BAv84-Ig (from UniProt Q02223 5-54) (Fc fusion) | binds |
| BAv87-Ig (from UniProt Q02223 5-54) (Fc fusion) | binds |
| BAv88-Ig (from UniProt Q02223 5-54) (Fc fusion) | binds |
